{"source": "the supplement of paper PMC3334620", "note": "The full ranking holds about 33,000 sequences; the median of “E-score (-0.5 to 0.5)” is about -0.0059, and the highest 2% start at about 0.26. Some of the results follow."}
{"molecular_target": "T1, Cin5 (UniProt P40917)", "T1 sequence": "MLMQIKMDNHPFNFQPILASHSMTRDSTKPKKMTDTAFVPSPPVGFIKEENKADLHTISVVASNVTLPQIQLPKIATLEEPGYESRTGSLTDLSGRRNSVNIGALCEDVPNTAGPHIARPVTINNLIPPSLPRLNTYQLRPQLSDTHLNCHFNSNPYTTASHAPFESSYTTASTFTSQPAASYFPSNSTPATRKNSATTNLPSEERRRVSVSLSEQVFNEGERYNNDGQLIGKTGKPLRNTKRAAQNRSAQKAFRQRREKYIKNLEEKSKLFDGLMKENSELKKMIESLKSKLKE", "assay": "PBM E-score (8-mer binding enrichment) (E-score (-0.5 to 0.5)); higher = stronger / more preferred TF binding", "details": "protein concentration: 100 nM; construct: GST-full length", "summary_of_the_method": "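Universal all-10-mer Agilent arrays, double-stranded by primer extension on fresh or once-stripped slides, were probed with about 100-200 nM GST-tagged yeast transcription factors made by PURExpress. Fluorescent anti-GST detected bound protein, and masliner normalised the scans. E-scores from the Universal PBM Analysis Suite were given to each ungapped eight-base word pooled with its reverse complement.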"}
{"sequence": "CATGCAGA", "PBM E-score": 0.0168}
{"sequence": "AGGTGTAG", "PBM E-score": -0.106}
{"sequence": "CGCGTTTC", "PBM E-score": -0.119}
{"sequence": "AGCGGTGC", "PBM E-score": -0.206}
{"sequence": "GATATTAC", "PBM E-score": 0.315}
{"sequence": "CCCTATCA", "PBM E-score": 0.0245}
{"sequence": "ACCTATGA", "PBM E-score": -0.199}
{"sequence": "ACAATTGT", "PBM E-score": 0.188}
{"sequence": "AACCACTC", "PBM E-score": -0.0101}
{"sequence": "AGTAACCA", "PBM E-score": 0.102}
{"sequence": "CGAGCGAC", "PBM E-score": -0.191}
{"sequence": "AAGCATCT", "PBM E-score": 0.0862}
{"sequence": "AACTAACA", "PBM E-score": 0.226}
{"sequence": "AATATCCG", "PBM E-score": 0.104}
{"sequence": "GTCAGTAA", "PBM E-score": 0.0254}
{"sequence": "AGAGCTAT", "PBM E-score": -0.183}
{"sequence": "ACCGGAAG", "PBM E-score": 0.175}
{"sequence": "CATCCCTA", "PBM E-score": 0.122}
{"sequence": "CCTACTGC", "PBM E-score": -0.164}
{"sequence": "GTCTACAC", "PBM E-score": -0.128}
{"sequence": "CGCTCTAG", "PBM E-score": -0.28}
{"sequence": "AGGTTCCC", "PBM E-score": -0.268}
{"sequence": "CAGGACGA", "PBM E-score": -0.0233}
{"sequence": "AAACTGCA", "PBM E-score": 0.0472}
{"sequence": "ACGAGAAT", "PBM E-score": 0.183}
{"sequence": "CAGTATTA", "PBM E-score": 0.294}
{"sequence": "AATTGACC", "PBM E-score": 0.0528}
{"sequence": "CTATCCCC", "PBM E-score": -0.213}
{"sequence": "CGCACTAG", "PBM E-score": -0.129}
{"sequence": "AACATCCC", "PBM E-score": 0.0021}
{"sequence": "GGGACGCA", "PBM E-score": -0.269}
{"sequence": "CAACCTAC", "PBM E-score": -0.0326}
{"sequence": "AAGTAGGG", "PBM E-score": 0.123}
{"sequence": "AACTTTTC", "PBM E-score": 0.0286}
{"sequence": "AGGGCCGG", "PBM E-score": -0.223}
{"sequence": "AACTGGGC", "PBM E-score": -0.214}
{"sequence": "GTGCAGCA", "PBM E-score": -0.207}
{"sequence": "CATGGGCA", "PBM E-score": -0.0955}
{"sequence": "AATTCACG", "PBM E-score": -0.0153}
{"sequence": "CCCGTGGC", "PBM E-score": -0.253}
{"sequence": "GCCACCTA", "PBM E-score": -0.175}
{"sequence": "AATCCAAA", "PBM E-score": 0.161}
{"sequence": "GCAAGTGA", "PBM E-score": 0.0515}
{"sequence": "TAGGACAA", "PBM E-score": 0.0959}
{"sequence": "AGGTTACA", "PBM E-score": 0.0231}
{"sequence": "GCTGTTCA", "PBM E-score": -0.0739}
{"sequence": "GAATACAC", "PBM E-score": -0.0125}
{"sequence": "ACAGAATA", "PBM E-score": 0.179}
{"sequence": "CCGGGGAC", "PBM E-score": -0.257}
{"sequence": "GTCTATCA", "PBM E-score": 0.0834}
{"sequence": "ACAGGAAA", "PBM E-score": 0.168}
{"sequence": "ACCTCGAA", "PBM E-score": -0.0141}
{"sequence": "ACATGATA", "PBM E-score": 0.187}
{"sequence": "ATTAGCCA", "PBM E-score": 0.135}
{"sequence": "ACATTACC", "PBM E-score": 0.0907}
{"sequence": "ACGTAGCC", "PBM E-score": -0.325}
{"sequence": "ATTTAAGA", "PBM E-score": -0.0445}
{"sequence": "GGGCTTAC", "PBM E-score": 0.21}
{"sequence": "AAGGTGTG", "PBM E-score": 0.0155}
{"sequence": "CCCCTCAA", "PBM E-score": 0.043}
{"sequence": "GTACCCCA", "PBM E-score": 0.0392}
{"sequence": "CTACGTCC", "PBM E-score": -0.205}
{"sequence": "ACAGGGCT", "PBM E-score": -0.334}
{"sequence": "AATTTAAA", "PBM E-score": 0.103}
{"sequence": "GCTTGGAA", "PBM E-score": -0.0446}
{"sequence": "AGGTAATG", "PBM E-score": 0.124}
{"sequence": "CCTGGCCG", "PBM E-score": -0.166}
{"sequence": "CACAGAGG", "PBM E-score": -0.151}
{"sequence": "GGACCTAC", "PBM E-score": -0.0461}
{"sequence": "ACACTTCG", "PBM E-score": 0.0775}
{"sequence": "CCTATGCA", "PBM E-score": 0.0538}
{"sequence": "AAATTTCT", "PBM E-score": 0.00133}
{"sequence": "ACGACCAA", "PBM E-score": -0.129}
{"sequence": "CTCGTGAC", "PBM E-score": -0.102}
{"sequence": "CAGAAAAA", "PBM E-score": 0.0244}
{"sequence": "CACCTACC", "PBM E-score": -0.23}
{"sequence": "ACACCGCT", "PBM E-score": -0.166}
{"sequence": "AGCGGGGA", "PBM E-score": -0.142}
{"sequence": "CGGGTTTA", "PBM E-score": 0.24}
{"sequence": "ATCTCGAG", "PBM E-score": 0.0137}
{"sequence": "GGGCTAAA", "PBM E-score": 0.0101}
{"sequence": "CATTCTAG", "PBM E-score": -0.0534}
{"sequence": "GCTAGGAA", "PBM E-score": -0.0357}
{"sequence": "AGTGCTCG", "PBM E-score": -0.0307}
{"sequence": "CCTACGCG", "PBM E-score": 0.00501}
{"sequence": "CCAACAGA", "PBM E-score": 0.0276}
{"sequence": "AGAGGCAA", "PBM E-score": -0.122}
{"sequence": "GAGCAATC", "PBM E-score": 0.0442}
{"sequence": "GGAGGCCA", "PBM E-score": -0.291}
{"sequence": "ACCTTCTA", "PBM E-score": 0.00913}
{"sequence": "GCCCCATA", "PBM E-score": 0.108}
{"sequence": "ACACGTAC", "PBM E-score": -0.0415}
{"sequence": "AGAGGCGA", "PBM E-score": -0.238}
{"sequence": "CAACGGTC", "PBM E-score": -0.208}
{"sequence": "AGCGATAA", "PBM E-score": 0.0116}
{"sequence": "CGTTGAAC", "PBM E-score": -0.0849}
{"sequence": "GGGTGGTA", "PBM E-score": -0.0602}
{"sequence": "ACAGGCCT", "PBM E-score": -0.144}
{"sequence": "CGTAACAC", "PBM E-score": 0.131}
{"sequence": "CTTAGAGC", "PBM E-score": -0.0864}
{"sequence": "AGCTTCCA", "PBM E-score": 0.0473}
{"sequence": "ACAGAGGT", "PBM E-score": -0.00542}
{"sequence": "GACCAGTA", "PBM E-score": -0.1}
{"sequence": "CCAACTTC", "PBM E-score": -0.0818}
{"sequence": "ACCCCCAG", "PBM E-score": -0.441}
{"sequence": "GTGAATTA", "PBM E-score": 0.216}
{"sequence": "GCTTCCGA", "PBM E-score": 0.0269}
{"sequence": "CTCTGTAA", "PBM E-score": -0.0837}
{"sequence": "ATATGGTG", "PBM E-score": 0.105}
{"sequence": "ATCTGCCG", "PBM E-score": 0.123}
{"sequence": "CGGGGTAA", "PBM E-score": 0.0993}
{"sequence": "CATTCGGA", "PBM E-score": 0.0388}
{"sequence": "CCATCCAA", "PBM E-score": 0.00982}
{"sequence": "ACAATTTC", "PBM E-score": 0.139}
{"sequence": "CGTGCTAC", "PBM E-score": -0.209}
{"sequence": "ACCTGGTC", "PBM E-score": -0.0997}
{"sequence": "CGTTGTTC", "PBM E-score": -0.13}
{"sequence": "CAAGTAAA", "PBM E-score": 0.0964}
{"sequence": "CTGGTAGA", "PBM E-score": 0.0491}
{"sequence": "CCACACGC", "PBM E-score": -0.0203}
{"sequence": "GACCACGC", "PBM E-score": -0.211}
{"sequence": "TCTCGCCA", "PBM E-score": 0.014}
{"sequence": "CCAGCCCA", "PBM E-score": -0.261}
{"sequence": "CCTGAGGC", "PBM E-score": -0.216}
{"sequence": "CAAACGAC", "PBM E-score": 0.218}
{"sequence": "AAAGCGTG", "PBM E-score": -0.0461}
{"sequence": "AGGGCGAA", "PBM E-score": -0.119}
{"sequence": "GATCGCCA", "PBM E-score": -0.0247}
{"sequence": "TGTCGGAA", "PBM E-score": -0.0356}
{"sequence": "CATCCATG", "PBM E-score": 0.0198}
{"sequence": "GACCGGAA", "PBM E-score": -0.0318}
{"sequence": "GGGAAACA", "PBM E-score": -0.0209}
{"sequence": "CCGAACGA", "PBM E-score": 0.086}
{"sequence": "AGCCCGCG", "PBM E-score": -0.0699}
{"sequence": "ATTTTTTA", "PBM E-score": 0.198}
{"sequence": "AATGTATG", "PBM E-score": 0.118}
{"sequence": "ACCCGTCT", "PBM E-score": -0.0849}
{"sequence": "TCCTCACA", "PBM E-score": -0.155}
{"sequence": "TACTAAAA", "PBM E-score": 0.197}
{"sequence": "ACGGAGAG", "PBM E-score": 0.00731}
{"sequence": "GAGAGTGA", "PBM E-score": 0.0691}
{"sequence": "AAATGTCA", "PBM E-score": 0.0985}
{"sequence": "CGGAATAC", "PBM E-score": 0.234}
{"sequence": "ACACTCTA", "PBM E-score": 0.0582}
{"sequence": "CATCCTAG", "PBM E-score": -0.0422}
{"sequence": "AGGAAGAG", "PBM E-score": -0.259}
{"sequence": "AGGTCTCA", "PBM E-score": -0.0655}
{"sequence": "ATCGTACA", "PBM E-score": 0.103}
{"sequence": "AGAACGAT", "PBM E-score": 0.0608}
{"sequence": "ACTAGTAG", "PBM E-score": 0.101}
{"sequence": "CTTCGACA", "PBM E-score": -0.14}
{"sequence": "ATGCGCAC", "PBM E-score": 0.0881}
{"sequence": "GACACCTC", "PBM E-score": -0.0446}
{"sequence": "CACTCTTA", "PBM E-score": 0.0625}
{"sequence": "ACTCCAGA", "PBM E-score": -0.142}
{"sequence": "GCGTGTCA", "PBM E-score": 0.113}
{"sequence": "GCCCGGGC", "PBM E-score": -0.152}
{"sequence": "CTTGAAAC", "PBM E-score": 0.174}
{"sequence": "AATTAGGA", "PBM E-score": -0.025}
{"sequence": "AATTTTTA", "PBM E-score": 0.166}
{"sequence": "AACACCCG", "PBM E-score": 0.2}
{"sequence": "ACACCGCA", "PBM E-score": -0.046}
{"sequence": "CCCGCAAG", "PBM E-score": -0.22}
{"sequence": "TGAGTGCA", "PBM E-score": 0.0371}
{"sequence": "AAGAAGGA", "PBM E-score": 0.0598}
{"sequence": "GAGTCAAC", "PBM E-score": -0.0718}
{"sequence": "AAGGATAT", "PBM E-score": 0.146}
{"sequence": "ATTAAGGG", "PBM E-score": -0.225}
{"sequence": "CCGCAGAC", "PBM E-score": -0.194}
{"sequence": "CGTTTTTC", "PBM E-score": -0.0208}
{"sequence": "GACACCGC", "PBM E-score": -0.107}
{"sequence": "ATAAGTAC", "PBM E-score": 0.188}
